The values below come from paper PMC6599030.

The chains behind the UniProt entries cited, without tags or fusion partners.
UniProt Q15836: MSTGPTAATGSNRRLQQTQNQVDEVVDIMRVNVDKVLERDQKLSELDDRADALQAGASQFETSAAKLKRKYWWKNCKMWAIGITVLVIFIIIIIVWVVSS

This test addresses GFP-VAMP3 (UniProt Q15836). Kind of test: co-IP; GFP-trap magnetic beads on lysates of stable hTERT-RPE1 cells expressing GFP-VAMP3 with mCherry-WDFY2, or mCherry-WDFY2 cells transfected with pEGFP-N2 as control; western blotting, 5% input. A general note: Immunoblotting shows a protein as a band on a membrane.

Results are given in words; binding and its absence hold for the method and conditions named. Binding seen in cells or lysates may run through a third protein. Some results given as binding are weak or reduced against the parent protein; the word gives no strength.

B1: mCherry-WDFY2 (protein, UniProt Q96P53 1-400)
chain: MAAEIQPKPLTRKPILLQRMEGSQEVVNMAVIVPKEEGVISVSEDRTVRVWLKRDSGQYWPSVYHAMPSPCSCMSFNPETRRLSIGLDNGTISEFILSEDYNKMTPVKNYQAHQSRVTMILFVLELEWVLSTGQDKQFAWHCSESGQRLGGYRTSAVASGLQFDVETRHVFIGDHSGQVTILKLEQENCTLVTTFRGHTGGVTALCWDPVQRVLFSGSSDHSVIMWDIGGRKGTAIELQGHNDRVQALSYAQHTRQLISCGGDGGIVVWNMDVERQETPEWLDSDSCQKCDQPFFWNFKQMWDSKKIGLRQHHCRKCGKAVCGKCSSKRSSIPLMGFEFEVRVCDSCHEAITDEERAPTATFHDSKHNIVHVHFDATRGWLLTSGTDKVIKLWDMTPVVS
B1: the binding entry was “binds”.
